No constants are given. Whether binding was seen depends on the method and setting. In cells and extracts the contact can be indirect.
Biological target: Myc-NIK (NF-κB-inducing kinase) (UniProt Q99558)
Assay: co-IP; H1299 cells cotransfected with two tagged plasmids for 48 h; reciprocal co-immunoprecipitation with anti-Flag, anti-Myc and anti-HA antibodies, western blotting

Sequences of proteins named here, by UniProt entry; tags and fusion partners are left off.
UniProt Q99558: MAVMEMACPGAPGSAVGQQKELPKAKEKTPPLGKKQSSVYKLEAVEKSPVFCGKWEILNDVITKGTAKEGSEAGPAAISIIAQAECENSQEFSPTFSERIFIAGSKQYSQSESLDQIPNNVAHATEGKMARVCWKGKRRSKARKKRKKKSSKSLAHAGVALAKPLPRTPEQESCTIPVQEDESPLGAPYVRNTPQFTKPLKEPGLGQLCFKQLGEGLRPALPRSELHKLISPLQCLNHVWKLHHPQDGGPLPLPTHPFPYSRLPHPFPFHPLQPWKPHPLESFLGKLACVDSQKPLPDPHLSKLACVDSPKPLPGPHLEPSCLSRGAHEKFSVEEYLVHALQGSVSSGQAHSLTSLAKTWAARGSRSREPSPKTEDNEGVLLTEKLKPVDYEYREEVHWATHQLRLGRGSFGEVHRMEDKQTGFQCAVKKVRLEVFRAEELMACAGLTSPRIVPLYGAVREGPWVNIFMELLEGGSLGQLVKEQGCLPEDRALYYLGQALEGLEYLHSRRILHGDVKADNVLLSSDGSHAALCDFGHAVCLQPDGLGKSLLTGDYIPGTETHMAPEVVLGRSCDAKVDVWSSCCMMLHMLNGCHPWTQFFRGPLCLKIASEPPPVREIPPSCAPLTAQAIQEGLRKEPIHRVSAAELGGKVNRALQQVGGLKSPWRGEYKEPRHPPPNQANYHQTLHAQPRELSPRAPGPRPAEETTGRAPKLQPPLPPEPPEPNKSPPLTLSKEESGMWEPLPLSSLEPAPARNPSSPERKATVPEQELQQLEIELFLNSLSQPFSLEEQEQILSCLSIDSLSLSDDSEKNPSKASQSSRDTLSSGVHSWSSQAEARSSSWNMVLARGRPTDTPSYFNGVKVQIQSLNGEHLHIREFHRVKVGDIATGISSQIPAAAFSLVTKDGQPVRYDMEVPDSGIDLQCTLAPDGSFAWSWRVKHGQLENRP
UniProt Q6GQQ9: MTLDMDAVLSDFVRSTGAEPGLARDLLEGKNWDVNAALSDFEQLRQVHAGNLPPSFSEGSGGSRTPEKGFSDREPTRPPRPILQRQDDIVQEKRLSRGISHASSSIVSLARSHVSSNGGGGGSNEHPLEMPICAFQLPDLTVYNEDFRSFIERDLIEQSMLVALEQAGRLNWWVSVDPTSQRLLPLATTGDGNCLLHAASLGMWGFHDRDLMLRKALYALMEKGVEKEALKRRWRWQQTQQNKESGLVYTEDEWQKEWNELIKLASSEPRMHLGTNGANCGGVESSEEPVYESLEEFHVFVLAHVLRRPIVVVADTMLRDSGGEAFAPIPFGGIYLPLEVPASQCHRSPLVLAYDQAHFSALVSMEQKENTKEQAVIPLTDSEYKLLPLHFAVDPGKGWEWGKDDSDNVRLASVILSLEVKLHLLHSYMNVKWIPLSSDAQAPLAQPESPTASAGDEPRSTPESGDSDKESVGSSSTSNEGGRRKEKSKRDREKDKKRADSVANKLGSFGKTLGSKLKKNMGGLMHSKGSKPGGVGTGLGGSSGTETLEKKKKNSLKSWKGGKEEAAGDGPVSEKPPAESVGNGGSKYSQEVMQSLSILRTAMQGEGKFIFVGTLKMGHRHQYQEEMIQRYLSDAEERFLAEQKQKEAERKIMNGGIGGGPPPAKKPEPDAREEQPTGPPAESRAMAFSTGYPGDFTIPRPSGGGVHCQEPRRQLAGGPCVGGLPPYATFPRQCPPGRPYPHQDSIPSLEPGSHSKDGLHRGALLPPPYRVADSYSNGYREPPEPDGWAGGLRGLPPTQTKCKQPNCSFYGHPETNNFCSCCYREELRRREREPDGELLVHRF

binding: no binding
Substance: HA-tagged OTUD7B (OTU domain-containing 7B) (from UniProt Q6GQQ9 1-843) (enzyme)

— PMC7667862
